Publication PMC12350791
Results are given in words; binding and its absence hold for the method and conditions named. Binding seen in cells or lysates may run through a third protein. Some entries that bind do so weakly or less than the wild type.

Protein sequences, listed by entry. Tags and fused reporters are not part of them.
UniProt Q13838: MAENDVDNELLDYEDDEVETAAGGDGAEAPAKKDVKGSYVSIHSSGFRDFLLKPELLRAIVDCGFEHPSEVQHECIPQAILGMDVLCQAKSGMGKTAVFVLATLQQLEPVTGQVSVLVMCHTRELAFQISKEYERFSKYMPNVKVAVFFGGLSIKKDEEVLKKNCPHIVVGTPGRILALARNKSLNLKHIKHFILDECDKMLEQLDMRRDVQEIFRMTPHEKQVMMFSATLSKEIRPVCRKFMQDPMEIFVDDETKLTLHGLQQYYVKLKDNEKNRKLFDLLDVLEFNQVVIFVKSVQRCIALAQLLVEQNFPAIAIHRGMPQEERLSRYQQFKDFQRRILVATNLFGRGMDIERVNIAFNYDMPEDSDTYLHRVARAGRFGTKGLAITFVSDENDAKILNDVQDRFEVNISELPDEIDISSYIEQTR

Biological target: T1, CHTOP (human (endogenous in K562)) (UniProt Q9Y3Y2)
T1 sequence: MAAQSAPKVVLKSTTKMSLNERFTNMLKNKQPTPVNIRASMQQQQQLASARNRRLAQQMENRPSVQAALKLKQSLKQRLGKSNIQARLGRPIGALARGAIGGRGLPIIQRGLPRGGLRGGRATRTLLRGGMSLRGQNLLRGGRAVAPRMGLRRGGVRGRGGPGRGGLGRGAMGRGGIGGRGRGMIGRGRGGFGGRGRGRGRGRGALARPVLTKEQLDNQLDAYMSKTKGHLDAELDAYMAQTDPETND
Assay: cross-linking; K562 nuclei (nuclear extracts) cross-linked with 2 mM Azide-A-DSBSO, 37 °C, 1 h, 20 mM HEPES pH 7.6, 150 mM NaCl, […] MgCl2; FASP digest, DBCO bead enrichment, SEC, LC-MS/MS; MS Annika, shotgun database of 5659 proteins, 1% FDR

“DDX39B-dTag-GFP (from UniProt Q13838 1-428)” was tested, and the binding was “binds”.
